Test results reported in article PMC10989928, “Cell division factor ZapE regulates Pseudomonas aeruginosa biofilm formation by impacting the pqs quorum sensing system” (mLife, 2023).
Results are given in words; binding and its absence hold for the method and conditions named. In cells and extracts the contact can be indirect. Here binding means that the protein was enriched with, or labelled near, the bait; the list need not be complete.

Amino acid sequences for entries named in this document (tags omitted).
UniProt P47204: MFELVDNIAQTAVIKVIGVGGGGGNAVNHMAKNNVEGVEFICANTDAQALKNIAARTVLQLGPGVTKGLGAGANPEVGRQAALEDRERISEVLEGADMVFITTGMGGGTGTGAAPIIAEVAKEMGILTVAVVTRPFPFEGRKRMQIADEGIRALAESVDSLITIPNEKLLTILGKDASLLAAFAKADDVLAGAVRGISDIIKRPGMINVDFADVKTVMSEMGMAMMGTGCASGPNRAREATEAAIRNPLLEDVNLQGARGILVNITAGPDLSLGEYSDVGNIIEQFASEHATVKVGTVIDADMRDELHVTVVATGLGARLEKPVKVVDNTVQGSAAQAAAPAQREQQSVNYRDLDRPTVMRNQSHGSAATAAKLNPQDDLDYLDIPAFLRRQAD

B1: PqsH, endogenous in P. aeruginosa (enzyme, UniProt Q9I0Q0 1-382)
chain: MTVLIQGAGIAGLALAREFTKAGIDWLLVERASEIRPIGTGITLASNALTALSSTLDLDRLFRRGMPLAGINVYAHDGSMLMSMPSSLGGNSRGGLALQRHELHAALLEGLDESRIRVGVSIVQILDGLDHERVTLSDGTVHDCSLVVGADGIRSSVRRYVWPEATLRHSGETCWRLVVPHRLEDAELAGEVWGHGKRLGFIQISPREMYVYATLKVRREEPEDEEGFVTPQRLAAHYADFDGIGASIARLIPSATTLVHNDLEELAGASWCRGRVVLIGDAAHAMTPNLGQGAAMALEDAFLLARLWCLAPRAETLILFQQQREARIEFIRKQSWIVGRLGQWESPWSVWLRNTLVRLVPNASRRRLHQRLFTGVGEMAAQ
B2: PhzM, phenazine-1-carboxylate N-methyltransferase, endogenous in P. aeruginosa (enzyme, UniProt Q9HWH2 1-334)
chain: MNNSNLAAARNLIQVVTGEWKSRCVYVATRLGLADLIESGIDSDETLAAAVGSDAERIHRLMRLLVAFEIFQGDTRDGYANTPTSHLLRDVEGSFRDMVLFYGEEFHAAWTPACEALLSGTPGFELAFGEDFYSYLKRCPDAGRRFLLAMKASNLAFHEIPRLLDFRGRSFVDVGGGSGELTKAILQAEPSARGVMLDREGSLGVARDNLSSLLAGERVSLVGGDMLQEVPSNGDIYLLSRIIGDLDEAASLRLLGNCREAMAGDGRVVVIERTISASEPSPMSVLWDVHLFMACAGRHRTTEEVVDLLGRGGFAVERIVDLPMETRMIVAARA

What follows are molecules tested against ZapE (PA4438) fused to GFP, expressed from p20T-zapE-gfp in P. aeruginosa ΔzapE (P. aeruginosa PAO1) (UniProt Q9HVX7) (assay: affinity purification with mass spectrometry; ZapE-GFP expressed in ΔzapE; total proteins incubated with GFP-trap Agarose; LC-MS/MS; GFP alone (p20T-gfp) as control; Mascot score ≥ 100 as threshold).

Molecule	binding
FtsZ, cell division protein, endogenous in P. aeruginosa (from UniProt P47204 1-394)	binds
B1	binds
B2	binds
